{"source": "PubChem BioAssay AID1053209 – Peter MacCallum Cancer Centre, 2014", "purpose": "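Knock-downs that sensitise mouse osteosarcoma cells to doxorubicin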 (follow-up of hits)", "cell system": "mouse primary osteosarcoma cells", "reagent": "single siRNA against mouse genes, 25 nM (text also states 40 nM)", "timing": "about 120 h (48 h before drug, then 72 h with drug)", "conditions": "doxorubicin 100 nM (about IC30-40), added 48 h after transfection, for 72 h", "detection": "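ATP-based luminescent viability, with or without doxorubicin, relative to non-targeting control NT1, mean of two replicates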", "scale": "viability with doxorubicin, vs NT1: higher = more viable cells under doxorubicin; viability without drug, vs NT1: higher = more viable cells without drug", "active means": "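Counted as active (class LC dox) if viability falls to 0.7 of NT1 or below under doxorubicin but stays within 0.7 to 1.1 without drug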", "note": "Shown is a random part of about 1,580 reagents tested. 207 of all reagents (13%) count as active. 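Rows are single siRNAs; four siRNAs per gene were tested, a gene counting as confirmed only when at least two agree.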 The numbers tell different reagents against one gene apart. Further read-outs or replicates are left out here."}
{"Gene": "Phldb2 (pleckstrin homology like domain, family B, member 2)", "reagent no.": 1, "combined effect class": "normal viability with and without drug", "viability with doxorubicin, vs NT1": 0.86, "viability without drug, vs NT1": 0.9, "Outcome": "inactive"}
{"Gene": "Phldb2 (pleckstrin homology like domain, family B, member 2)", "reagent no.": 2, "combined effect class": "high viability only without drug", "viability with doxorubicin, vs NT1": 1.03, "viability without drug, vs NT1": 1.16, "Outcome": "inactive"}
{"Gene": "Phldb2 (pleckstrin homology like domain, family B, member 2)", "reagent no.": 3, "combined effect class": "normal viability with and without drug", "viability with doxorubicin, vs NT1": 0.94, "viability without drug, vs NT1": 0.9, "Outcome": "inactive"}
{"Gene": "Phldb2 (pleckstrin homology like domain, family B, member 2)", "reagent no.": 4, "combined effect class": "normal viability with and without drug", "viability with doxorubicin, vs NT1": 0.97, "viability without drug, vs NT1": 1.04, "Outcome": "inactive"}
{"Gene": "Lonp2 (lon peptidase 2, peroxisomal)", "reagent no.": 1, "combined effect class": "normal viability with and without drug", "viability with doxorubicin, vs NT1": 0.92, "viability without drug, vs NT1": 1, "Outcome": "inactive"}
{"Gene": "Lonp2 (lon peptidase 2, peroxisomal)", "reagent no.": 2, "combined effect class": "normal viability with and without drug", "viability with doxorubicin, vs NT1": 1.02, "viability without drug, vs NT1": 1, "Outcome": "inactive"}
{"Gene": "Lonp2 (lon peptidase 2, peroxisomal)", "reagent no.": 3, "combined effect class": "normal viability with and without drug", "viability with doxorubicin, vs NT1": 1.04, "viability without drug, vs NT1": 0.96, "Outcome": "inactive"}
{"Gene": "Lonp2 (lon peptidase 2, peroxisomal)", "reagent no.": 4, "combined effect class": "normal viability with and without drug", "viability with doxorubicin, vs NT1": 1.02, "viability without drug, vs NT1": 0.97, "Outcome": "inactive"}
{"Gene": "Psma6 (proteasome subunit alpha 6)", "reagent no.": 1, "combined effect class": "low viability with and without drug", "viability with doxorubicin, vs NT1": 0.35, "viability without drug, vs NT1": 0.52, "Outcome": "inactive"}
{"Gene": "Psma6 (proteasome subunit alpha 6)", "reagent no.": 2, "combined effect class": "normal viability with and without drug", "viability with doxorubicin, vs NT1": 0.72, "viability without drug, vs NT1": 0.89, "Outcome": "inactive"}
{"Gene": "Psma6 (proteasome subunit alpha 6)", "reagent no.": 3, "combined effect class": "low viability with and without drug", "viability with doxorubicin, vs NT1": 0.11, "viability without drug, vs NT1": 0.23, "Outcome": "inactive"}
{"Gene": "Psma6 (proteasome subunit alpha 6)", "reagent no.": 4, "combined effect class": "low viability with and without drug", "viability with doxorubicin, vs NT1": 0.15, "viability without drug, vs NT1": 0.31, "Outcome": "inactive"}
{"Gene": "Snrpg (small nuclear ribonucleoprotein polypeptide G)", "reagent no.": 1, "combined effect class": "normal viability with and without drug", "viability with doxorubicin, vs NT1": 0.73, "viability without drug, vs NT1": 0.82, "Outcome": "inactive"}
{"Gene": "Snrpg (small nuclear ribonucleoprotein polypeptide G)", "reagent no.": 2, "combined effect class": "low viability with and without drug", "viability with doxorubicin, vs NT1": 0.24, "viability without drug, vs NT1": 0.3, "Outcome": "inactive"}
{"Gene": "Snrpg (small nuclear ribonucleoprotein polypeptide G)", "reagent no.": 3, "combined effect class": "low viability with and without drug", "viability with doxorubicin, vs NT1": 0.24, "viability without drug, vs NT1": 0.29, "Outcome": "inactive"}
{"Gene": "Snrpg (small nuclear ribonucleoprotein polypeptide G)", "reagent no.": 4, "combined effect class": "low viability with and without drug", "viability with doxorubicin, vs NT1": 0.35, "viability without drug, vs NT1": 0.4, "Outcome": "inactive"}
{"Gene": "Phf5a (PHD finger protein 5A)", "reagent no.": 1, "combined effect class": "low viability with and without drug", "viability with doxorubicin, vs NT1": 0.06, "viability without drug, vs NT1": 0.3, "Outcome": "inactive"}
{"Gene": "Phf5a (PHD finger protein 5A)", "reagent no.": 2, "combined effect class": "low viability with and without drug", "viability with doxorubicin, vs NT1": 0.32, "viability without drug, vs NT1": 0.57, "Outcome": "inactive"}
{"Gene": "Phf5a (PHD finger protein 5A)", "reagent no.": 3, "combined effect class": "low viability with and without drug", "viability with doxorubicin, vs NT1": 0.34, "viability without drug, vs NT1": 0.53, "Outcome": "inactive"}
{"Gene": "Phf5a (PHD finger protein 5A)", "reagent no.": 4, "combined effect class": "low viability with and without drug", "viability with doxorubicin, vs NT1": 0.44, "viability without drug, vs NT1": 0.7, "Outcome": "inactive"}
{"Gene": "Nsfl1c (NSFL1 (p97) cofactor (p47))", "reagent no.": 1, "combined effect class": "normal viability with and without drug", "viability with doxorubicin, vs NT1": 0.96, "viability without drug, vs NT1": 1.08, "Outcome": "inactive"}
{"Gene": "Nsfl1c (NSFL1 (p97) cofactor (p47))", "reagent no.": 2, "combined effect class": "normal viability with and without drug", "viability with doxorubicin, vs NT1": 0.89, "viability without drug, vs NT1": 1.01, "Outcome": "inactive"}
{"Gene": "Nsfl1c (NSFL1 (p97) cofactor (p47))", "reagent no.": 3, "combined effect class": "normal viability with and without drug", "viability with doxorubicin, vs NT1": 1.02, "viability without drug, vs NT1": 0.98, "Outcome": "inactive"}
{"Gene": "Nsfl1c (NSFL1 (p97) cofactor (p47))", "reagent no.": 4, "combined effect class": "low viability only with doxorubicin; normal without drug", "viability with doxorubicin, vs NT1": 0.55, "viability without drug, vs NT1": 0.79, "Outcome": "active"}

A few values from above:
Under “viability without drug, vs NT1”, Psma6 (proteasome subunit alpha 6) #4 shows 0.31
Result for Phf5a (PHD finger protein 5A) #1 in “viability without drug, vs NT1”: 0.3
